Source: the supplement of paper PMC7858590
± gives the standard deviation of the averaged measurements. In all, about 3,800 compounds were measured (“cell shape (eccentricity) Z-score vs DMSO control”: median about 1.1, lowest 2% from about -4.7 on). The list shows a part of the results.

The molecules below were run on human monocyte-derived macrophages (M0) (assay: cell shape (eccentricity) Z-score vs DMSO control; higher = more elongated, M2-like morphology). Conditions: 20 µM; 24 h; macrophage state: M0 (M-CSF).

SMILES | cell shape (Z-score)
CCOC(=O)C1Cc2ccccc2CN1C(=O)c1ccc(SC)s1 (stereo unspecified) | 0.853
CCn1nc(C(=O)O)c(=O)c2cc3c(cc21)OCO3 | 1.59
C[C@H](O)c1nc2ccccc2c(=O)[nH]1 | 0.101
O=c1c(O)c(-c2ccc(O)cc2)oc2cc(OC3O[C@H](CO)[C@@H](O)[C@H](O)[C@H]3O)cc(O)c12 (stereo partly specified) | 0.856
CC(C)(C)c1cnc(CSc2cnc(NC(=O)C3CCNCC3)s2)o1 | 3.31
CC(=O)Oc1ccccc1C(=O)Oc1ccccc1C(=O)O | 4.32
Cc1ccc(C)c(OCCCC(C)(C)C(=O)O)c1 | 1.98
CC(=O)C(C#N)C(=O)Nc1cc(Br)ccc1Br (stereo unspecified) | -5.16
CC1CC(OC(=O)c2ccccc2O)CC(C)(C)C1 (stereo unspecified) | 2.74
CCCCN(CCCC)CCCOC(=O)c1ccc(N)cc1 | -0.4
CC(C)CC(NC(=O)OCC1c2ccccc2-c2ccccc21)C(=O)O (stereo unspecified) | 1.09
CC(C)=CCc1c(O[C@@H]2O[C@H](CO)[C@@H](O)[C@H](O)[C@H]2O)cc(O)c2c1O[C@H](c1ccc(O)cc1)CC2=O | 0.356
COc1nc(N)nc2c1ncn2[C@@H]1O[C@H](CO)[C@@H](O)[C@@H]1O | 0.62 ± 1.5
CC(C)(Oc1ccc(C2CC2(Cl)Cl)cc1)C(=O)O (stereo unspecified) | 1.13
COc1ccc(-c2cc(=O)c3c(O)c(OC)c(O[C@H]4O[C@H](CO[C@@H]5O[C@@H](C)[C@H](O)[C@@H](O)[C@H]5O)[C@@H](O)[C@H](O)[C@H]4O)cc3o2)cc1 | 0.599
COC(=O)C[C@@H]1C(C(=O)O)=CO[C@@H](O[C@@H]2O[C@H](CO)[C@@H](O)[C@H](O)[C@H]2O)/C1=C\COC(=O)/C=C/c1ccccc1 | -3.68
Nc1ncnc2c1c(COc1cccc(Cl)c1)nn2C1CCOCC1 | 3.86
C=C[C@]1(C)C[C@H](O)[C@H]2C(=C)C(=O)O[C@@H]2[C@H]1C(=C)CO | -1.59
Cc1cccc(Nc2ccccc2C(=O)O)c1C | 4.38

SMILES | cell shape (Z-score)
CC(C)CC#Cc1ccc2c(c1)O[C@@H](CN(C)C(=O)c1cnccn1)[C@H](C)CN([C@H](C)CO)S2(=O)=O | 2.61
C[C@@H]1O[C@@H](O[C@H]2[C@H](O)[C@@H](O)[C@H](O[C@H]3[C@H](O[C@H]4CC[C@@]5(C)C(=CC[C@H]6C7C[C@@H]8O[C@]9(CC[C@@](C)(CO[C@@H]%10O[C@H](CO)[C@@H](O)[C@H](O)[C@H]%10O)O9)[C@H](C)C8[C@@]7(C)CCC65)C4)O[C@H](CO)[C@@H](O)[C@@H]3O)O[C@@H]2CO)[C@H](O)[C@H](O)[C@H]1O (stereo partly specified) | -1.72
COc1cc2c(Nc3ccc(NC(=O)c4ccccc4)cc3)ncnc2cc1OCCCN1CCOCC1 | -0.0726
Cc1cc(C)c(S(=O)(=O)Nc2ccccc2C(F)(F)F)c(C)c1 | 1.77
N[C@H](CSCCB(O)O)C(=O)O | 4.09
C(=C\N1CCN(C(c2ccccc2)c2ccccc2)CC1)/Cc1ccccc1 | 3.09
O=C1N=C(NS(=O)(=O)c2cccc3ccccc23)S/C1=C\c1ccc(Br)cc1 | -0.239
O=C(CCc1ccc(O)cc1)c1ccc(O[C@@H]2O[C@H](CO)[C@H](O)[C@H](O)[C@H]2O)cc1O | 2.57
CC(=O)OCC1=CCCC2[C@@]1(C)CC[C@@H](C)[C@]2(C)CCC(C)CC(=O)O (stereo partly specified) | -1.11
C/C=C/C=C/C(=O)O[C@@H]1C=C(CO)[C@](O)(CO)[C@@]2(C)CCCC(C)(C)[C@H]12 | 0.307
CC(C)Oc1cccc(-n2c(CCc3c[nH]c4ccc(Br)cc34)nc3ccccc3c2=O)c1 | 3.94
COc1ccc2c(c1)c(=O)oc1cc(O)ccc12 | 2.68
C[C@H]1c2cccc(O)c2C(=O)C2C(=O)[C@]3(O)C(=O)C(C(N)=O)C(=O)[C@@H](N(C)C)[C@@H]3[C@@H](O)[C@@H]21 (stereo partly specified) | -0.502
O=C(Nc1cccc(-c2cn3ccccc3n2)c1)c1cc2cccc(O)c2oc1=O | 0.05
COC1OC(=O)C(CCC2(C)C(C)CCC3(C)C2CC(O)C(O)C32CO2)C1O (stereo unspecified) | -2.34
CCCCC/C=C\C/C=C\CCCCCCCC(=O)OC(CO)CO | 1.86
OCCOCCN1CCN(C2=Nc3ccccc3Sc3ccccc32)CC1 | 2.19
CN1[C@@H](CC(=O)c2ccccc2)CCC[C@H]1C[C@H](O)c1ccccc1 | -3.79
CN1C(CCl)Nc2cc(Cl)c(S(N)(=O)=O)cc2S1(=O)=O (stereo unspecified) | 0.386

SMILES | cell shape (Z-score)
Fc1ccc([C@@H]2CCNC[C@H]2COc2ccc3c(c2)OCO3)cc1 | 1.33
C/C(=C\CC[C@H](CO)[C@@H]1CC[C@]2(C)C3=C(CC[C@@]12C)[C@@]1(C)CCC(=O)C(C)(C)C1CC3)C(=O)O (stereo partly specified) | 0.863 ± 2.3
CC1(C)CC(c2nc(-c3ccc4ccc(-c5ccccc5)nc4c3)c3c(N)nccn23)C1 | 6.24
CS(=O)(=O)Nc1ccc([N+](=O)[O-])cc1Oc1ccccc1 | 3.89
O=C(O)CCC=CCC1COC(c2ccccc2Cl)OC1c1ccccc1O (stereo unspecified) | 2.22
CCCCC/C=C/C=C/C(O)CCCCCCCC(=O)O (stereo unspecified) | 0.726
COc1cc(C2CC(=O)c3c(O)cc(O)cc3O2)ccc1O (stereo unspecified) | 2.17 ± 1.8
CC1OC(Oc2cc(O)c(C3OC(C)C(O)C(O)C3O)c3oc(-c4ccc(O)cc4)cc(=O)c23)C(O)C(O)C1O (stereo unspecified) | 1.37
CC(=O)NC(C(=O)O[C@H]1CCC(C)(C)[C@@H]2CC=C3C(=O)OCC3(O)[C@@]12C)C(C)C (stereo partly specified) | 0.522 ± 0.68
CC[C@H]1OC(=O)[C@H](C)[C@@H](O[C@H]2C[C@@](C)(OC)[C@@H](O)[C@H](C)O2)[C@H](C)[C@@H](O[C@@H]2O[C@H](C)C[C@H](N(C)C)[C@H]2O)[C@](C)(O)C[C@@H](C)CN(C)[C@H](C)[C@@H](O)[C@]1(C)O | -0.526
c1ccc(C2CN3CCSC3=N2)cc1 (stereo unspecified) | 0.216
c1ccc2oc(C3=NCCN3)cc2c1 | 3.36
COc1cc2c(c(OC)c1OC)C[C@H]1COC(=O)[C@@H]1Cc1c-2cc(OC)c(OC)c1OC | -9.6
Oc1ccc2ccccc2c1 | 0.791
COc1c2occc2cc2ccc(=O)oc12 | 2.93
CC1CC(=O)c2c(ccc3c2C(=O)c2cccc(O)c2C3O)C1 (stereo unspecified) | 4.78
CCOc1ccc(Cc2cc([C@@H]3O[C@H](CO)[C@@H](O)[C@H](O)[C@H]3O)ccc2Cl)cc1 | -0.0179
Clc1ccc(CCC(Cn2ccnc2)Sc2c(Cl)cccc2Cl)cc1 (stereo unspecified) | 1.78

Some of these compounds in order of SMILES length, smallest number first:
SMILES | cell shape (Z-score)
Oc1ccc2ccccc2c1 | 0.791
C[C@H](O)c1nc2ccccc2c(=O)[nH]1 | 0.101
CC(=O)C(C#N)C(=O)Nc1cc(Br)ccc1Br (stereo unspecified) | -5.16
Cc1cc(C)c(S(=O)(=O)Nc2ccccc2C(F)(F)F)c(C)c1 | 1.77
CN1[C@@H](CC(=O)c2ccccc2)CCC[C@H]1C[C@H](O)c1ccccc1 | -3.79
COc1nc(N)nc2c1ncn2[C@@H]1O[C@H](CO)[C@@H](O)[C@@H]1O | 0.62 ± 1.5
COc1cc2c(Nc3ccc(NC(=O)c4ccccc4)cc3)ncnc2cc1OCCCN1CCOCC1 | -0.0726
CC(C)Oc1cccc(-n2c(CCc3c[nH]c4ccc(Br)cc34)nc3ccccc3c2=O)c1 | 3.94
CCOc1ccc(Cc2cc([C@@H]3O[C@H](CO)[C@@H](O)[C@H](O)[C@H]3O)ccc2Cl)cc1 | -0.0179
CC(=O)NC(C(=O)O[C@H]1CCC(C)(C)[C@@H]2CC=C3C(=O)OCC3(O)[C@@]12C)C(C)C (stereo partly specified) | 0.522 ± 0.68
O=c1c(O)c(-c2ccc(O)cc2)oc2cc(OC3O[C@H](CO)[C@@H](O)[C@H](O)[C@H]3O)cc(O)c12 (stereo partly specified) | 0.856
CC(C)CC#Cc1ccc2c(c1)O[C@@H](CN(C)C(=O)c1cnccn1)[C@H](C)CN([C@H](C)CO)S2(=O)=O | 2.61
CC[C@H]1OC(=O)[C@H](C)[C@@H](O[C@H]2C[C@@](C)(OC)[C@@H](O)[C@H](C)O2)[C@H](C)[C@@H](O[C@@H]2O[C@H](C)C[C@H](N(C)C)[C@H]2O)[C@](C)(O)C[C@@H](C)CN(C)[C@H](C)[C@@H](O)[C@]1(C)O | -0.526
